Experimental data: PubChem BioAssay AID1508600 (Functional Genomics Laboratory (NCATS/FGL), 2020)
In all, about 53,000 sequences went through this assay and about 3,700 (7%) were called active.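 The calls were made as follows: active = gene knockdowns whose robust z-score for IL-1 alpha signal is at least 2 or at most -2, so actives lie on both sides; inactive = the rest.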 Some of the results follow.

Assay: Components of the Cytosolic LPS Sensing Pathway: Gene Identification via Genome-wide siRNA Screen;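 also: robust z of the log signal after scaling to non-targeting control siRNA wells of the plate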
Details: RAW264.7 macrophages, IL-1a HTRF, actives lie on both sides, screened at 100 nM (by protocol), cells primed 5 h with Pam3CSK4 first
Outline: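 Knockdown: 100 nM siRNA, 48h, RAW264.7. Stimulation: Pam3CSK4 5 h, then LipidA via TransIT-TKO 24 h. Output: supernatant IL-1a HTRF, negative-control-normalized, log robust z-score; viability by CellTiter-Glo.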

| Sequence | z-score |
| --- | --- |
| GGCAAGUCUGUGUGCAGAUTT against Olfr267 | inactive: 0.579 |
| GGAAUUCCCAAGAGAAGGATT against Gk | active: -5.27 |
| CCAGACCUACAAUGAGAUGTT against Gga1 | inactive: -0.699 |
| GGAAAAUCUCUUGGGACGATT against Myo6 | inactive: 1.46 |
| GCAGCCGCUUUAAUUAAAATT against Apaf1 | inactive: 1.49 |
| GGCCACUUGUCUCAUUGUGTT against Xlr4c | inactive: -1.93 |
| GGCAAGGACUCGAAGACUATT against 9630028B13Rik | inactive: 1.2 |
| GUUCAUUUGUCAUCACUGUTT against Prss2 | inactive: -1.28 |
| GCAAUAGCAUACCUACCAUTT against Desi2 | inactive: -0.228 |
| GGGCAGUUCUCUUUGCCAATT against Gns | inactive: -1.15 |
| CCAUUAAUAAAGCGUGGGUTT against Cacybp | inactive: 0.562 |
| CCUAAACCCAUUCCAGUCUTT against Dpm3 | inactive: 0.104 |
| GGUGACUAUUAGAAGUAAATT against Gtf3c4 | inactive: 1.18 |
| CCUGACAUUCUUUAAUCCATT against Synb | inactive: 0.6 |
| GAUAUUGCUCUCCAAUCUATT against 2310034C09Rik | inactive: -1.4 |
| GAUAUAAGGACUCUUUGAATT against Glt28d2 | inactive: -0.287 |
| CCCACCAGUAAGGAGUUCATT against Dido1 | inactive: -0.177 |
| GCAUGCUGACAUUAAAGUGTT against Clca4a | inactive: 0.607 |
| GGUAUGAGAUACCGGACACTT against Asic1 | inactive: 1.77 |
| GGCUAUCCUGGAAAAAGAGTT against Slc25a36 | inactive: -1.13 |
| GGACAUUGUCACAUCAUUCTT against Slc2a6 | inactive: 1.64 |
| GGCAAUGUUUACAAGUUCCTT against Ralgps1 | inactive: 0.491 |
| GGUGGGCAUCUGACAACAUTT against Set | inactive: 0.886 |

| Sequence | z-score |
| --- | --- |
| GAGUGGAUGGCUCAAAGGATT against Zfp691 | inactive: 1.33 |
| GGCUUUAGUUCUUUUGUAATT against Mmd | inactive: -0.936 |
| GGAUAAAGCCACAUUUGGUTT against Apoh | inactive: -0.483 |
| GCUACUUUAGUGGUUUCACTT against Ets1 | inactive: 1.63 |
| GCAAAAGGUUAAACUGAUATT against Fbxl14 | inactive: -0.393 |
| GCUAUCCUCAAAAUUCCUUTT against Olfr412 | inactive: -1.42 |
| CGUAAGUUAUGUGUCUAAGTT against Fam207a | inactive: 0.588 |
| GGAGGAUAGAUUUAUGUAUTT against Tmem241 | inactive: -0.847 |
| CGAAGGUACUAUGUAUUUUTT against Tbce | inactive: -0.12 |
| GGUGCACACCAAUGUUCUGTT against Efemp2 | active: 2.03 |
| CCACUCCAACUAGUGUUAATT against Pcdha10 | inactive: 1.65 |
| CCACACUAACUUGUAAUUUTT against Rasgrp1 | inactive: 0.778 |
| GGGCCUUCUUCCUAAAUUUTT against Mat2a | inactive: 0.708 |
| GCAAAGGGUUCCUGUACUUTT against Dnajc27 | inactive: 0.668 |
| GGACCAUUCUGGCUACUCATT against Ankrd34b | active: -2.17 |
| GCAUCACAGAAACUGAGCATT against Pou6f2 | inactive: -0.542 |
| GGAGAUUCAGAAUUACUGATT against Krit1 | inactive: -0.818 |
| GGCAGUAAUCAACAAAUAGTT against Lrrtm4 | inactive: 0.000329 |
| CGAAAACAAUUACGUCUAUTT against Rfwd3 | inactive: 1.15 |
| GUAAGGUCACCGGGUUGCATT against Lor | inactive: 0.547 |
| GGUGCUUCACAGAAUGUGUTT against Olfr784 | inactive: -1.8 |
| GGCGAUGCUUCUUCAGUACTT against Wdr54 | inactive: 1.91 |
| GGAUCUGUGCUCUGAGAAGTT against Acot11 | inactive: 0.937 |

| Sequence | z-score |
| --- | --- |
| GGAAAAAAGAGAGGUCAGATT against Meox1 | inactive: -1.02 |
| CCACUGAUCCUUUGACAGCTT against Zfy2 | inactive: 0.313 |
| GCUUUAGUCAUUUGAACAUTT against Rap2c | inactive: 1.59 |
| GGAUGAAAAGCUUAUUCGUTT against Ddx5 | inactive: -1.3 |
| GGAAGAUUUCGAUAAGCUCTT against Cacna1h | inactive: 1.46 |
| GAAUUCCAGCUUUUCCCUUTT against Klra22 | inactive: 1.5 |
| GCUCUACCGUUAAGUUAUUTT against Eif4e2 | inactive: 0.499 |
| GGAGGACGUAUCAUUACAUTT against Twf1 | inactive: 1.95 |
| CCACUUGAGUAUAAGCAAUTT against Zfp955a | inactive: 1.16 |
| GGAAGCAUGUGAGAGAAAATT against C130026I21Rik | inactive: -1.03 |
| CCAUUUACCUCAUAGGACCTT against Crb3 | inactive: -0.239 |
| GGCAACAGAGCUGACCCUATT against F630111L10Rik | inactive: 0.69 |
| GCAGCUAGGUAAUAGGAAUTT against Nsg2 | inactive: 1.51 |
| CGCAGGUAUACCUUAAAGCTT against Paxbp1 | inactive: 0.154 |
| CCCAUGGCUACUUUGAAUCTT against Chmp2b | inactive: -0.328 |
| GGAACUGUGGAAGGAAUUCTT against Tbx6 | inactive: 0.116 |
| GGUCGAUGCUUCGAAACCATT against 6820408C15Rik | inactive: -0.165 |
| GCAAUUCUGCAAGUGAUUATT against Spata5l1 | inactive: -0.776 |
| GCCGGUCUAACUUUCCAAUTT against Ssbp3 | inactive: 0.946 |
| GAUCUAUCACCGGUACUGCTT against Gys1 | inactive: 0.154 |
| GCCGCACAUGCCUACAGAATT against Pagr1a | inactive: 0.795 |
| CGCCUACAGCUCUAUCUUATT against 2700062C07Rik | inactive: 1.05 |

Exported with each value named: part of the list above
GGAAGAUUUCGAUAAGCUCTT against Cacna1h
  z-score: inactive: 1.46
GAAUUCCAGCUUUUCCCUUTT against Klra22
  z-score: inactive: 1.5
